Source: PubChem BioAssay AID504467 (National Center for Advancing Translational Sciences (NCATS), 2011)
In all, about 330,000 compounds went through this assay and about 7,700 (2.3%) were called active. The shares of active, inactive and inconclusive entries below differ from those in the screen. Calls follow the shape of the dose curve; as a rule, active = well fitted inhibition curve with a large enough effect; inconclusive = small, poorly fitted or top-dose-only effect, or effect the other way; inactive = flat fitted curve, though single readings scatter. Potencies beside an inconclusive call are fits to weak or partial responses and may not hold up.

Experiment: qHTS screen for small molecules that inhibit ELG1-dependent DNA repair in human embryonic kidney (HEK293T) cells expressing luciferase-tagged ELG1; also: nearly all actives have a fitted effect of over 55% in size
Details: HEK293T ELG1-luciferase reporter, luminescence, 16 h, DNA damage induced by 5-fluorouridine; activity change, negative = inhibition: at 46.1 µM (top of the series)
Outline: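 Quantitative HTS, concentration-response format. 2,000 cells/well co-treated with 5-fluorouridine and compound, 16 hr in 5% CO2 at 37 °C; ONE-Glo luminescence read after 30 min.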
% is scaled to controls: 0 for no effect and ±100 for the full control effect; potency is read from the fitted curve at half-maximal effect.

Row | SMILES | activity change, negative = inhibition | Potency
1 | COCCn1c(SCC(=O)Nc2ccc(F)cc2)nc2c(oc3ccccc32)c1=O | inactive: -3.53% | –
2 | O=C(Nc1nnc(-c2ccccc2)o1)c1cc(-c2cccs2)nc2ccccc12 | inactive: -10.2% | –
3 | COc1cc(NC(=O)C(=O)N2CCN(C)CC2)c(OC)cc1Cl | – | inconclusive: 18.3 µM [activator, partial curve, poor fit]
4 | COc1cc([N+](=O)[O-])ccc1N | – | inconclusive: 23.1 µM [activator, partial curve, poor fit]
5 | O=C(Nc1ccc(-c2cn3ccsc3n2)cc1)C1CC1 | – | inconclusive: 4.11 µM [activator, partial curve]
6 | COc1ccc(-n2nc(C(=O)NCC(=O)Nc3ccccn3)c3ccccc3c2=O)cc1Cl | – | inconclusive: 0.0184 µM [inhibitor, full curve, poor fit]
7 | CCN(CC(=O)Nc1ccc(NC(C)=O)cc1)CC(=O)Nc1cc(C)on1 | inactive: 7.04% | –
8 | COC(CNC(=O)CN1C(=O)COc2ccc(S(=O)(=O)N3CCOCC3)cc21)OC | – | inconclusive: 8.2 µM [activator, partial curve, poor fit]
9 | CN(C)c1cc(NC(=O)CNC(C)(C)CC(C)(C)C)c2ccccc2n1 | inactive: -19.3% | –
10 | CC(C)=CCN1CCN(Cc2coc3ccc(C)cc3c2=O)CC1CCO (centres undefined) | inactive: 1.93% | –
11 | O=C(NCc1ccc2[nH]c3c(c2c1)CCCC3)c1ccc(S(=O)(=O)N2CCOCC2)cc1 | – | inconclusive: 23.1 µM [inhibitor, partial curve, poor fit]
12 | Cc1cc(CNC(=O)c2cccc([N+](=O)[O-])c2C)c2ccccc2n1 | – | inconclusive: 1.83 µM [inhibitor, full curve]
13 | Cc1ccc(-n2c(C)c(C)c3c(NCCO)ncnc32)cc1 | – | inconclusive: 14.6 µM [activator, partial curve]
14 | CCc1cc2cccc(C)c2nc1SCC(=O)N1CCN(C(=O)c2ccco2)CC1 | – | inconclusive: 20.6 µM [inhibitor, single point]
15 | Cc1ccccc1S(=O)(=O)Cc1ccc(C(=O)N2CCN(c3ccccc3F)CC2)o1 | inactive: -22.4% | –
16 | CC(C)(NC(=O)c1ccccc1)c1nc2ccccc2s1 | inactive: 23.4% | –
17 | Cn1c(=O)[nH]c(=O)c2c1nc(CN1CCOCC1)n2Cc1ccccc1 | – | inconclusive: 0.794 µM [activator, full curve, poor fit]
18 | O=C(c1cc2nc(-c3ccc(F)cc3)cc(C(F)(F)F)n2n1)N1CCCCC1c1cccnc1 (centres undefined) | – | active: 8.2 µM
19 | Cc1cc(=O)oc2cc(OS(C)(=O)=O)ccc12 | – | inconclusive: 8.2 µM [activator, partial curve, poor fit]
20 | O=C(CCC1CCCCC1)NCCN1C2=NC[C@H](Cc3ccc(O)cc3)N2C[C@H]1Cc1ccc(O)cc1 | inactive: 14.1% | –
21 | O=C1CC(=O)N(Cc2ccco2)C(=S)N1 | inactive: 3.45% | –
22 | CCC(C)n1c(SCC(=O)NC(=O)c2cccn2C)nc2ccccc2c1=O (centres undefined) | – | inconclusive: 5.17 µM [inhibitor, full curve]
23 | CCN(CC)c1ccc(/C=C(\C#N)C(N)=O)cc1 | – | inconclusive: 11.6 µM [activator, partial curve, poor fit]

Row | SMILES | activity change, negative = inhibition | Potency
24 | C/C(=N\NC(=O)C1CC1)c1ccc2c(c1)OCCO2 | – | inconclusive: 20.6 µM [activator, single point]
25 | CCOc1ccc(NC(=O)c2ccc(N)cc2)cc1 | – | inconclusive: 13 µM [activator, partial curve]
26 | CN(C)S(=O)(=O)c1cccc(CSCc2cccc(S(=O)(=O)N(C)C)c2)c1 | – | active: 1.3 µM
27 | COc1ccc(N(CC(O)Cn2c(C)nc3ccccc32)S(=O)(=O)c2ccc(C)cc2)cc1 (centres undefined) | – | inconclusive: 23.1 µM [inhibitor, single point]
28 | Cc1nn(C)c(C(=O)Nc2ccc3c(c2)OCO3)c1[N+](=O)[O-] | – | inconclusive: 11.6 µM [activator, partial curve, poor fit]
29 | O=C(CCC(=O)N1CCCC1)Nc1ccc(Cl)c(Cl)c1 | inactive: -3.39% | –
30 | Cc1nnc(C)n1/N=C/c1c(O)ccc2ccccc12 | inactive: 26.2% | –
31 | CCc1nnc(NC(=O)C2COc3ccccc3O2)s1 (centres undefined) | – | inconclusive: 9.2 µM [activator, partial curve]
32 | Cc1ccc(-c2noc(CCC(=O)NCC3CCN(Cc4cccc(C)c4)CC3)n2)cc1 | – | inconclusive: 25.9 µM [inhibitor, partial curve, poor fit]
33 | CN(C)/C=N/c1ncc(C(=O)c2ccc3ccccc3c2)s1 | – | inconclusive: 29.1 µM [activator, single point]
34 | CS(=O)(=O)n1nc(-c2ccc(Cl)cc2)nc1N | – | inconclusive: 20.6 µM [activator, single point]
35 | CCc1ccc(N(CC)C(=O)c2cn(C)c(=O)c3ccccc23)cc1 | – | inconclusive: 14.6 µM [activator, partial curve]
36 | O=C(CSc1ccc2nnc(CCNC(=O)c3ccccc3)n2n1)NC1CCCC1 | inactive: -19.4% | –
37 | Cc1c(Cl)cccc1NC(=S)NCC(c1cccnc1)N(C)C (centres undefined) | inactive: 4.28% | –
38 | COc1ccc2c(c1)nc(SCC(=O)C(C)(C)C)n2C | – | inconclusive: 32.6 µM [activator, partial curve, poor fit]
39 | CN(CC(=O)Nc1ccc(F)cc1)C(=O)COC(=O)c1cccc(N(C)C)c1 | – | inconclusive: 2.06 µM [activator, full curve, poor fit]
40 | CC(C)C(=O)NC(C)C(c1cccs1)N1CCOCC1 (centres undefined) | inactive: 8.02% | –
41 | COc1ccc(CN(CC(=O)NCCc2ccccc2)C(=O)CCC(=O)Nc2ccccn2)cc1 | – | inconclusive: 29.1 µM [inhibitor, single point]
42 | CCc1ccc(NC(=O)CCc2nnc3ccc(N4CCCC4)nn23)cc1 | inactive: -2.15% | –
43 | CCn1c(CSCc2ccc(C)cc2)nnc1SCC(=O)N1CCN(c2ccccc2)CC1 | – | active: 18.4 µM
44 | O=C(N/N=C1/CC2C=CCC12)c1cccs1 (centres undefined) | – | inconclusive: 4.11 µM [activator, partial curve, poor fit]
45 | CCOC(=O)C1=C(CC)Nc2ccccc2N=C1NC(=O)c1oc2ccccc2c1C | – | inconclusive: 16.4 µM [inhibitor, single point]
46 | CCn1c(O)c(N=NC(=O)CNC(=O)Cc2ccccc2)c2ccccc21 | inactive: 28.6% | –

Row | SMILES | activity change, negative = inhibition | Potency
47 | CCn1cc([N+](=O)[O-])c(C(=O)N2N=C(c3ccc(O)c(OC)c3)CC2c2ccccc2O)n1 (centres undefined) | – | inconclusive: 20.6 µM [inhibitor, single point]
48 | COc1cccc(Oc2cn[nH]c2-c2ccc(OCC(=O)NN)cc2O)c1 | inactive: 9.8% | –
49 | Cc1ccc(C(O)(COC(=O)C(C)C)COC(=O)C(C)C)c(O)c1 | inactive: -6.2% | –
50 | COc1ccccc1-c1nnc2sc(COc3ccccc3)nn12 | – | inconclusive: 5.8 µM [inhibitor, partial curve]
51 | Cc1ccc(NCC(=O)c2ccc([N+](=O)[O-])cc2)cc1 | – | inconclusive: 18.3 µM [activator, partial curve]
52 | Cn1c(SC(C(=O)Nc2ccc(F)cc2)c2ccccc2)nc2ccccc21 (centres undefined) | – | inconclusive: 20.6 µM [inhibitor, single point]
53 | O=C(CSc1nnc(-c2ccc(Cl)cc2)n1Cc1ccco1)Nc1ccc2c(c1)OCCO2 | – | inconclusive: 2.06 µM [inhibitor, partial curve, poor fit]
54 | COc1ccc2nc(-c3ccccc3)cc(C(=O)OCC(=O)N3CCCCC3)c2c1 | – | inconclusive: 20.6 µM [inhibitor, single point]
55 | CCOC(=O)C1=C(N)n2c(s/c(=C\c3ccco3)c2=O)=C(C(=O)OC(C)C)C1c1ccco1 (centres undefined) | – | inconclusive: 13 µM [inhibitor, partial curve]
56 | Cc1noc(/C=C/c2ccccc2F)c1S(=O)(=O)N1CCC(C(=O)N2CCN(C)CC2)CC1 | inactive: -11.2% | –
57 | Nc1nc2ccc(Cc3ccncc3)cc2s1 | – | inconclusive: 29.1 µM [activator, single point]
58 | Cn1c(=O)c2c(ncn2CC(=O)OCC(=O)Nc2cc(Cl)ccc2Cl)n(C)c1=O | inactive: 6.95% | –
59 | Cc1cccn2c(Nc3ccccc3)c(-c3ccccn3)nc12 | – | inconclusive: 18.3 µM [inhibitor, single point]
60 | COc1cccc(N2CCN(C(=O)c3cc(-c4ccccc4)nc4c3cnn4C(C)C)CC2)c1 | – | active: 11.6 µM
61 | O=C(COC(=O)c1cnccn1)c1ccc(Cl)c([N+](=O)[O-])c1 | inactive: -2.74% | –
62 | O=C(Nc1ccncc1)c1ccc(S(=O)(=O)Nc2ccccc2)cc1 | – | inconclusive: 10.3 µM [inhibitor, partial curve]
63 | Cc1nn(CC(=O)NC2C(=O)N3C(C(=O)O)=C(CSc4nnnn4C)CSC23)cc1Br (centres undefined) | – | inconclusive: 13 µM [activator, partial curve, poor fit]
64 | O=C(c1ccccc1)n1c(=S)nc2ccccn21 | – | inconclusive: 0.58 µM [activator, full curve]
65 | Cc1ccc2nc(SCC(=O)NCCCN3CCCC3=O)[nH]c2c1 | – | inconclusive: 31.6 µM [activator, single point]
66 | C/C(N)=C(/C#N)C(=O)CSc1nc2ccccc2c(=O)n1CCCOC(C)C | – | inconclusive: 20.6 µM [inhibitor, partial curve, poor fit]
67 | Cc1cc(NC(=O)c2cccs2)ncc1NC(=O)C(C)C | – | inconclusive: 10.3 µM [activator, partial curve]
68 | Cc1cccc(-c2cc3nc4c(c(N5CCOCC5)n3n2)CCCC4)c1 | – | inconclusive: 2.59 µM [activator, partial curve]
69 | CCCOc1ccc(-c2cnc(N)s2)cc1 | – | inconclusive: 18.4 µM [activator, partial curve]

Complete entries as entered above. Values in the order: activity change, negative = inhibition | Potency
Cn1c(SC(C(=O)Nc2ccc(F)cc2)c2ccccc2)nc2ccccc21 (centres undefined) as listed: – | inconclusive: 20.6 µM [inhibitor, single point]
CS(=O)(=O)n1nc(-c2ccc(Cl)cc2)nc1N as listed: – | inconclusive: 20.6 µM [activator, single point]
